A short description of series [1]: Film-forming properties of radiation sensitive compositions. Further details: key: C: the resist film was whitened or its surface was roughened; B: partially whitened or partially roughened; A: the surface appeared good. It is filed as physicochemical. The settings on record: 10% by weight solution in PGMEA spin-coated on silicon wafer, film about 0.2 μm, 3 min at about 110° C.

Series [2] can be described thus: Adhesion to silicon substrate. Further details: key: A: the resist film formed in the evaluation 2 did not peel off the silicon wafer; B: did not peel off when a surface treating agent (silane coupling agent) was used; C: peeled off even when a surface treating agent was used. The note with it: resist film on silicon wafer, without or with silane coupling agent.

As to `CC1(c2ccc3ccccc3c2)c2ccc(O)cc2Oc2cc(OC3CCCCC3)ccc21` (centres unmarked) [Compound 9-1], the “(2) Film-forming properties” value in series [1] is reported as “A”. Also, the “(4) Adhesion to Si substrate” value in series [2] is recorded as “A”.

As to `CC(C)(C)OC(=O)Oc1ccc2c(c1)Oc1cc(OC(=O)OC(C)(C)C)ccc1C21c2ccccc2-c2ccccc21` [Compound 11-2], the “(2) Film-forming properties” value in series [1] is on record as “B”. Further, the “(4) Adhesion to Si substrate” value in series [2] is recorded as “B”.

Take `Oc1ccc(C2(c3ccc(OC4CCCCO4)cc3)c3ccccc3-c3ccccc32)cc1` (centres unmarked) [Compound 7-4]: the “(2) Film-forming properties” value in series [1] is reported as “A”. Moreover, the “(4) Adhesion to Si substrate” value in series [2] is given as “A”.

Turning to `CCOC(C)Oc1ccc(C(C)(c2ccc(O)c(C3CCCCC3)c2)c2ccc3ccccc3c2)cc1C1CCCCC1` (centres unmarked) [Compound 5-7], the “(2) Film-forming properties” value in series [1] is “A”. Moreover, the “(4) Adhesion to Si substrate” value in series [2] is on record as “A”.

On to `CC(C)(C)OC(=O)Cc1cc(C2(c3cc(OC(=O)OC(C)(C)C)c(OC(=O)OC(C)(C)C)c(OC(=O)OC(C)(C)C)c3)c3ccccc3-c3ccccc32)cc(OC(=O)OC(C)(C)C)c1OC(=O)OC(C)(C)C` [Compound 7-3], for which the “(2) Film-forming properties” value in series [1] was “A”. The “(4) Adhesion to Si substrate” value in series [2] is given as “A”.

Regarding `CC(C)(C)OC(=O)Oc1ccc(C2(c3ccc(OC(=O)OC(C)(C)C)c(OC(=O)OC(C)(C)C)c3)c3ccccc3-c3ccccc32)cc1OC(=O)OC(C)(C)C` [Compound 7-1], the “(2) Film-forming properties” value in series [1] was “B”. Besides, the “(4) Adhesion to Si substrate” value in series [2] was “B”.

Take `Cc1cc(C(C)(c2ccc(OC(=O)OC(C)(C)C)c(C)c2)c2ccc3ccccc3c2)ccc1OC(=O)OC(C)(C)C` [Compound 5-1]: the “(2) Film-forming properties” value in series [1] was “A”. The “(4) Adhesion to Si substrate” value in series [2] is “A”.

As to `CCOC(C)Oc1ccc2c(c1)Oc1cc(O)ccc1C21c2ccccc2-c2ccccc21` (centres unmarked) [Compound 11-3], the “(2) Film-forming properties” value in series [1] is recorded as “A”. Moreover, in series [2], the “(4) Adhesion to Si substrate” value is listed as “A”.

Take `Cc1cc(C(C)(c2ccc(OC(C)OC3CCCCC3)c(C)c2)c2ccc3ccccc3c2)ccc1O` (centres unmarked) [Compound 5-5]: the “(2) Film-forming properties” value in series [1] is on record as “A”. For the same compound, the “(4) Adhesion to Si substrate” value in series [2] is on record as “A”.

Turning to `CC(C)(C)OC(=O)Oc1ccc(C(C)(c2ccc(O)cc2)c2ccc3ccccc3c2)cc1` (centres unmarked) [Compound 5-8], the “(2) Film-forming properties” value in series [1] is recorded as “A”. Moreover, in series [2], the “(4) Adhesion to Si substrate” value is on record as “A”.

Regarding `Cc1cc(C(C)(c2ccc(O)c(C)c2)c2ccc3ccccc3c2)ccc1O` [Compound 14-5, 1-(2-naphthyl)-1,1-bis(3-methyl-4-hydroxyphenyl)ethane, reference compound], the “(2) Film-forming properties” value in series [1] is recorded as “A”.

On to `CCOC(C)Oc1ccc(C2(c3ccc(O)c(C4CCCCC4)c3)Cc3cccc4cccc2c34)cc1C1CCCCC1` (centres unmarked) [Compound 8-3], for which the “(2) Film-forming properties” value in series [1] was “A”. Besides, the “(4) Adhesion to Si substrate” value in series [2] is “A”.

As to `CC(C)(C)OC(=O)Oc1ccc(C(c2ccc(O)cc2)c2cccc3ccccc23)cc1` (centres unmarked) [Compound 5-9], the “(2) Film-forming properties” value in series [1] is “A”. Besides, in series [2], the “(4) Adhesion to Si substrate” value is given as “A”.

As to `Cc1cc(C(C)(c2ccc(OC(=O)OC(C)(C)C)c(C)c2)c2ccc3ccccc3c2)ccc1O` (centres unmarked) [Compound 5-2], in series [1], the “(2) Film-forming properties” value was “A”. In addition, the “(4) Adhesion to Si substrate” value in series [2] is “A”.

Turning to `CC(C)(C)OC(=O)Oc1ccc(C2(c3ccc(OC(=O)OC(C)(C)C)cc3)C(=O)c3cccc4cccc2c34)cc1` [Compound 8-4], in series [1], the “(2) Film-forming properties” value is recorded as “A”. Moreover, the “(4) Adhesion to Si substrate” value in series [2] was “A”.

With `CC(C)(C)OC(=O)Oc1ccc(C(c2ccc(OC(=O)OC(C)(C)C)cc2)c2ccc(OC(=O)OC(C)(C)C)cc2)cc1` [Compound 14-3, reference compound], the “(2) Film-forming properties” value in series [1] was “A”. Moreover, the “(4) Adhesion to Si substrate” value in series [2] was “C”.

In the case of `CCOC(C)Oc1ccc(C2(c3ccc(O)c(-c4ccccc4)c3)Cc3cccc4cccc2c34)cc1-c1ccccc1` (centres unmarked) [Compound 8-5], in series [1], the “(2) Film-forming properties” value is “A”. The “(4) Adhesion to Si substrate” value in series [2] is “A”.

`Oc1ccc(C(c2ccc(OC3CCCCO3)cc2)c2ccc(-c3ccccc3)cc2)cc1` (centres unmarked) [Compound 6-1]: the “(2) Film-forming properties” value in series [1] is “A”. Besides, the “(4) Adhesion to Si substrate” value in series [2] is on record as “A”.

Regarding `CC(C)(C)OC(=O)Oc1ccc(-c2cc(-c3ccc(OC(=O)OC(C)(C)C)cc3)cc(-c3ccc(OC(=O)OC(C)(C)C)cc3)c2)cc1` [Compound 14-4, reference compound], in series [1], the “(2) Film-forming properties” value is recorded as “B”. The “(4) Adhesion to Si substrate” value in series [2] is reported as “C”.

In the case of `CCCCOC(=O)Oc1ccc2c(c1)Oc1cc(OC(=O)OCCCC)ccc1C2c1ccc(-c2ccccc2)cc1` [Compound 10-1], the “(2) Film-forming properties” value in series [1] is given as “A”. The “(4) Adhesion to Si substrate” value in series [2] is recorded as “B”.

`O=C1c2cccc3cccc(c23)C1(c1ccc(O)cc1)c1ccc(OC2CCCCO2)cc1` (centres unmarked) [Compound 8-2]: the “(2) Film-forming properties” value in series [1] is “A”. Besides, the “(4) Adhesion to Si substrate” value in series [2] was “A”.

`Cc1cc(C(C)(c2ccc(OC3CCCCO3)c(C)c2)c2ccc3ccccc3c2)ccc1O` (centres unmarked) [Compound 5-6]: in series [1], the “(2) Film-forming properties” value is on record as “A”. In addition, the “(4) Adhesion to Si substrate” value in series [2] is “A”.

For `O=C1c2ccccc2C(c2ccc(O)cc2)(c2ccc(OC3CCCCO3)cc2)c2ccccc21` (centres unmarked) [Compound 7-5], the “(2) Film-forming properties” value in series [1] was “A”. In addition, the “(4) Adhesion to Si substrate” value in series [2] is reported as “A”.

`CC(C)(C)OC(=O)Oc1ccc2c(c1)Oc1cc(O)ccc1C21c2ccccc2-c2ccccc21` [Compound 11-1]: the “(2) Film-forming properties” value in series [1] was “A”. Also, the “(4) Adhesion to Si substrate” value in series [2] is “A”.

As to `Oc1ccc(C2(c3ccc(OC4CCCCO4)cc3)Cc3cccc4cccc2c34)cc1` (centres unmarked) [Compound 8-1], in series [1], the “(2) Film-forming properties” value is given as “A”. In addition, the “(4) Adhesion to Si substrate” value in series [2] is “A”.

Turning to `CC(C)(C)OC(=O)Cc1cc(C(C)(c2ccc(OC(=O)OC(C)(C)C)c(OC(=O)OC(C)(C)C)c2)c2ccc3ccccc3c2)ccc1OC(=O)OC(C)(C)C` (centres unmarked) [Compound 5-3], in series [1], the “(2) Film-forming properties” value is recorded as “A”. In addition, the “(4) Adhesion to Si substrate” value in series [2] was “B”.

Turning to `CC(C)(C)OC(=O)Oc1cc(C2(c3ccc(OC(=O)OC(C)(C)C)c(OC(=O)OC(C)(C)C)c3)c3ccccc3-c3ccccc32)ccc1O` [Compound 7-2], in series [1], the “(2) Film-forming properties” value is reported as “A”. Also, the “(4) Adhesion to Si substrate” value in series [2] is “A”.

On to `CCOC(C)Oc1ccc2c(c1)Oc1cc(O)ccc1C21Cc2cccc3cccc1c23` (centres unmarked) [Compound 12-1], for which the “(2) Film-forming properties” value in series [1] is given as “A”. Moreover, the “(4) Adhesion to Si substrate” value in series [2] was “A”.

On to `CCOC(C)Oc1ccc(C(C)(c2ccc(O)c(C)c2)c2ccc3ccccc3c2)cc1C` (centres unmarked) [Compound 5-4], for which the “(2) Film-forming properties” value in series [1] was “A”. Further, the “(4) Adhesion to Si substrate” value in series [2] is recorded as “A”.

Take `Oc1ccc2c(c1)Oc1cc(OC3CCCCO3)ccc1C2c1ccc(-c2ccccc2)cc1` (centres unmarked) [Compound 10-2]: the “(2) Film-forming properties” value in series [1] is listed as “A”. In series [2], the “(4) Adhesion to Si substrate” value is “A”.

The values are drawn from patent US20070059632A1, “Method of manufacturing a semiconductor device” (priority 2003, published 2007).
